In patent publication US7501552 (GENPHARM INTERNATIONAL, dated 2009):
These are yes or no findings as the source states them, for the method shown. Some entries that bind do so weakly or less than the wild type.

Sequences of proteins named here, by UniProt entry; tags and fusion partners are left off. Residues count along the entry.
UniProt P16003, residues 26-458: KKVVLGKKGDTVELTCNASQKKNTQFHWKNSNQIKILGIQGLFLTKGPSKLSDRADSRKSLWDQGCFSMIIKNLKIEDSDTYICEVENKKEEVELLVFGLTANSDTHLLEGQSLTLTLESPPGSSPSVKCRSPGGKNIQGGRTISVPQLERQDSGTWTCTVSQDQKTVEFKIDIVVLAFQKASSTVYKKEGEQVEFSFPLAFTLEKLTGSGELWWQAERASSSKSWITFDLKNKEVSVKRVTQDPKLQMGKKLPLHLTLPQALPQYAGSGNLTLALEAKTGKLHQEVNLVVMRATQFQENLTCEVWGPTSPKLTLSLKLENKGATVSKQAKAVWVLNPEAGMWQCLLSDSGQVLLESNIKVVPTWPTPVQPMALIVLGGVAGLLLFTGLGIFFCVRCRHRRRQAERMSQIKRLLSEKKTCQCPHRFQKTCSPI
UniProt P79185, residues 26-458: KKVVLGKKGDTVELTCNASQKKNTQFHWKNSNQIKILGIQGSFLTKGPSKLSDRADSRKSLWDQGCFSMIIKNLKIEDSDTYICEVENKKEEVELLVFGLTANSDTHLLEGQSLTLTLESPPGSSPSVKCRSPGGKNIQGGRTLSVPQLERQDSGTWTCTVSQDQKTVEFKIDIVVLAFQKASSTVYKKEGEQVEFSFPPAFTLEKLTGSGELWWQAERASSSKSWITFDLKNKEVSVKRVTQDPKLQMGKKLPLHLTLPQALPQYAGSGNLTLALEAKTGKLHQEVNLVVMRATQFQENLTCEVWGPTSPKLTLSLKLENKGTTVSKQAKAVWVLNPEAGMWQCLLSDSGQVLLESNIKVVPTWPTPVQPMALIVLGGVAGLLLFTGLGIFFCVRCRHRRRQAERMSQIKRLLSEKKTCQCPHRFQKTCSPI

Assays:
[1] = biological target: T1, rhesus monkey CD4 on lymphocytes (rhesus monkey, UniProt P16003 26-458); assay: flow cytometry on peripheral blood lymphocytes
T1 construct: whole, on cells; also called rhesus CD4 cells
Method: (§1) It is further desirable for some purposes that the animal be a non-human primate that expresses CD4 comprising a cross-reactive epitope with human CD4 such that it is recognized by the monoclonal antibody. […] Peripheral blood lymphocytes were isolated from whole blood of chimpanzee, rhesus, and cynomolgus monkeys. […] The stained cells were then analyzed by flow cytometry to determine if each of the human monoclonal antibodies bound to endogenous CD4 on the surface of lymphocytes from each of these three non-human primates.

[2] = biological target: T2, cynomolgus monkey CD4 on lymphocytes (cynomolgus monkey, UniProt P79185 26-458); assay: flow cytometry on peripheral blood lymphocytes
T2 construct: whole, on cells; also called cynomolgus CD4 cells
Method: as §1

[3] = biological target: T3, chimpanzee CD4 on lymphocytes (chimpanzee, UniProt P16004 26-458); assay: flow cytometry on peripheral blood lymphocytes
T3 construct: whole, on cells; also called chimpanzee CD4 cells
Method: as §1

[4] = biological target: T3, chimpanzee CD4 on lymphocytes; assay: ex vivo flow cytometry of chimpanzee inguinal lymph node lymphocytes after infusion of the mAb: FITC goat anti-human Fcγ on CD4+ cells
[5] = biological target: native human CD4 on the cell surface (human) (UniProt P01730); assay: flow cytometry on SupT1 cells
[6] = biological target: native human CD4 on the cell surface (human) (UniProt P01730); assay: flow cytometry on SupT1 cells preincubated with stain buffer, RPA-T4 or Leu-3a; supernatant 1:2, FITC goat anti-human Fcγ
[7] = biological target: native human CD4 on the cell surface (human) (UniProt P01730); assay: ELISA and flow cytometry on SupT1 cells
[8] = biological target: T3, chimpanzee CD4 on lymphocytes; assay: flow cytometry of PBMC after infusion into chimpanzees, FITC-goat anti-human Fcγ
[9] = biological target: T3, chimpanzee CD4 on lymphocytes; assay: MCF HuMAb on chimpanzee lymph node CD4+ cells, flow cytometry
[10] = biological target: T2, cynomolgus monkey CD4 on lymphocytes; assay: as described in Example 43
[11] = biological target: T3, chimpanzee CD4 on lymphocytes; assay: ex vivo flow cytometry of chimpanzee PBMC after infusion of the mAb: FITC goat anti-human Fcγ on CD4+ cells
[12] = biological target: T3, chimpanzee CD4 on lymphocytes; assay: flow cytometry of chimpanzee lymph node cells after infusion
[13] = biological target: native human CD4 on the cell surface (human) (UniProt P01730); assay: flow cytometry on CD4+ SupT1 cells, FITC goat anti-human Fcγ
[14] = biological target: T2, cynomolgus monkey CD4 on lymphocytes; assay: restated in the half-life study
[15] = biological target: T2, cynomolgus monkey CD4 on lymphocytes; assay: ex vivo flow cytometry of cynomolgus PBMC after infusion of the mAb: FITC goat anti-human Fcγ on CD4+ (OKT4+) cells
[16] = biological target: T1, rhesus monkey CD4 on lymphocytes; assay: as found in Example 43 (flow cytometry)
[17] = biological target: T2, cynomolgus monkey CD4 on lymphocytes; assay: as found in Example 43 (flow cytometry)
[18] = biological target: T3, chimpanzee CD4 on lymphocytes; assay: as found in Example 43 (flow cytometry)
[19] = biological target: native human CD4 on the cell surface (human) (UniProt P01730); assay: two-colour flow cytometry on human PBMC
[20] = biological target: T2, cynomolgus monkey CD4 on lymphocytes; assay: flow cytometry of PBMC after infusion into cynomolgus monkeys

Measured: binding

B1: 6G5 (antibody, human IgG1, V domains shown)
VH: QVQLQQWGAGLLKPSETLSLTCAVYGGSFSGYYWSWIRQPPGKGLEWIGEINHSGSTNYNPSLKSRVTISVDTSKNQFSLKLSSVTAADTAVYYCARVINWFDPWGQGTLVTVSS
VL: DIQMTQSPSSVSASVGDRVTITCRASQDISSWLAWYQHKPGKAPKLLIYAASSLQSGVPSRFSGSGSGTDFTLTISSLQPEDFATYYCQQANSFPYTFGQGTKLEIK
binds: all assays above
